Experimental data taken from publication PMC9640671.
Results are given in words; binding and its absence hold for the method and conditions named. In cells and extracts the contact can be indirect. Some binding calls cover weakened binding; strength is not graded here.

Chains of the proteins cited; added tags and fusions are not shown.
UniProt P51150: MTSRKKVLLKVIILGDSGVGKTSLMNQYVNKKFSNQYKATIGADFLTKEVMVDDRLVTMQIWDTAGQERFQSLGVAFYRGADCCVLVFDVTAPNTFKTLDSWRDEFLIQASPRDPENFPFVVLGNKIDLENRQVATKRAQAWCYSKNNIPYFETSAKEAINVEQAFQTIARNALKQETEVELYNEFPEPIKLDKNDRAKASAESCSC
UniProt P47811: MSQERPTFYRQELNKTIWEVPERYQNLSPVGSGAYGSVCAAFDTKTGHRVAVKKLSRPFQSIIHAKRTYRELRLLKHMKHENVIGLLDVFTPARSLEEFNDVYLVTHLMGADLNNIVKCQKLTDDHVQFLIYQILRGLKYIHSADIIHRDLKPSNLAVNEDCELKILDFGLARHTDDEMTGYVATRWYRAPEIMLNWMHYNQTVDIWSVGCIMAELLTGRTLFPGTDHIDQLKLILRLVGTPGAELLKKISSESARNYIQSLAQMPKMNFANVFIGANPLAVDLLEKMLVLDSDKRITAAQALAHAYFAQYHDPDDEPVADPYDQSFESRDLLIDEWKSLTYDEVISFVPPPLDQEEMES

How the values were obtained:
[1] = target: Flag-tagged Rab7a (UniProt P51150); assay: co-IP; HEK 293T cells co-transfected with Flag-tagged Rab7a and HA-tagged MAPK14 constructs; immunoprecipitation from lysate, immunoblot
[2] = target: MAPK14 (endogenous, RAW264.7) (mouse (endogenous in RAW264.7)) (UniProt P47811); assay: co-IP; endogenous proteins; MAPK14 immunoprecipitates of lysates of RAW264.7 stimulated with LPS (1 μg/mL) for 30 min, with or without inhibitor pretreatment for 30 min (SB203580 by the text, PD168393 by the legend); immunoblot
[3] = target: EGFR (epidermal growth factor receptor), endogenous in BMDM (mouse (endogenous in BMDM)) (UniProt Q01279); assay: co-IP; endogenous proteins; BMDM treated with LPS (1 µg/mL) for 1 h with or without PD168393 (10 μM) pretreatment for 30 min; IP lysis buffer, anti-EGFR antibody, Protein A/G magnetic beads, 4 °C; immunoblot

HA-tagged MAPK14 (from UniProt P47811 1-360) (enzyme)
binding [1]: binds

Rab7a (endogenous, RAW264.7) (from UniProt P51150 1-207)
binding [2]: binds

B1: Rab5a (endogenous, BMDM) (protein, UniProt Q9CQD1 1-215)
chain: MANRGATRPNGPNTGNKICQFKLVLLGESAVGKSSLVLRFVKGQFHEFQESTIGAAFLTQTVCLDDTTVKFEIWDTAGQERYHSLAPMYYRGAQAAIVVYDITNEESFARAKNWVKELQRQASPNIVIALSGNKADLANKRAVDFQEAQSYADDNSLLFMETSAKTSMNVNEIFMAIAKKLPKNEPQNPGANSARGRGVDLTEPAQPARSQCCSN
binding [3]: binds
